{"source": "PubChem BioAssay AID1671195 | Yale University – 2021", "purpose": "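Knockdowns that increase or decrease uptake of fluorescent LDL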 (primary screen)", "system": "human Huh7 hepatoma cells", "reagent": "siRNA pool against human genes, 18 nM", "timing": "about 2 to 2.5 days of knockdown, then 8 h LDL uptake", "conditions": "DiI-labelled LDL at 30 µg/ml for 8 h, in lipoprotein-deficient serum medium", "measurement": "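Fluorescent LDL signal imaged in cells, scaled to the plate median, robust z-score for each replicate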", "direction": "robust z-score: higher = more LDL uptake after knockdown", "hit rule": "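Active when two or more replicates show a robust z-score above 2 or below -2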", "note": "The deposit covers about 22,000 reagents; shown is a random part of them. Of all reagents, about 1,510 (6.9%) got an active call. 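Active includes knockdowns raising or lowering LDL uptake; positive z-scores mean more uptake, negative mean less.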 The numbers tell different reagents against one gene apart."}
{"gene symbol": "SIKE1", "pool no.": 1, "robust z-score, replicate 1": 0.605, "robust z-score, replicate 2": 1.46, "robust z-score, replicate 3": 0.866, "Call": "inactive"}
{"gene symbol": "NYAP2", "pool no.": 1, "robust z-score, replicate 1": 1.44, "robust z-score, replicate 2": 1.39, "robust z-score, replicate 3": 0.846, "Call": "inactive"}
{"gene symbol": "PURB", "pool no.": 1, "robust z-score, replicate 1": 2.96, "robust z-score, replicate 2": 2.97, "robust z-score, replicate 3": 3.34, "Call": "active"}
{"gene symbol": "LINC00996", "pool no.": 1, "robust z-score, replicate 1": -0.388, "robust z-score, replicate 2": -0.41, "robust z-score, replicate 3": -0.69, "Call": "inactive"}
{"gene symbol": "LOC440492 (retired record)", "pool no.": 1, "robust z-score, replicate 1": -0.404, "robust z-score, replicate 2": -0.681, "robust z-score, replicate 3": -0.546, "Call": "inactive"}
{"gene symbol": "TGFBRAP1", "pool no.": 1, "robust z-score, replicate 1": 2.15, "robust z-score, replicate 2": -1.24, "robust z-score, replicate 3": -0.547, "Call": "inactive"}
{"gene symbol": "AKAP3", "pool no.": 1, "robust z-score, replicate 1": -0.543, "robust z-score, replicate 2": 0.166, "robust z-score, replicate 3": 0.593, "Call": "inactive"}
{"gene symbol": "KRTAP5-9", "pool no.": 1, "robust z-score, replicate 1": -0.51, "robust z-score, replicate 2": -0.509, "robust z-score, replicate 3": -0.108, "Call": "inactive"}
{"gene symbol": "BOLL", "pool no.": 1, "robust z-score, replicate 1": -0.604, "robust z-score, replicate 2": -0.868, "robust z-score, replicate 3": -0.24, "Call": "inactive"}
{"gene symbol": "ZNF550", "pool no.": 1, "robust z-score, replicate 1": -0.637, "robust z-score, replicate 2": -0.228, "robust z-score, replicate 3": -0.539, "Call": "inactive"}
{"gene symbol": "HAUS6", "pool no.": 1, "robust z-score, replicate 1": -1.18, "robust z-score, replicate 2": -0.821, "robust z-score, replicate 3": 0.43, "Call": "inactive"}
{"gene symbol": "ABCG5", "pool no.": 1, "robust z-score, replicate 1": 4.31, "robust z-score, replicate 2": 4.62, "robust z-score, replicate 3": 2.32, "Call": "active"}
{"gene symbol": "CRTAP", "pool no.": 1, "robust z-score, replicate 1": 1.41, "robust z-score, replicate 2": 1.49, "robust z-score, replicate 3": 0.375, "Call": "inactive"}
{"gene symbol": "PLCD4", "pool no.": 1, "robust z-score, replicate 1": -1.58, "robust z-score, replicate 2": -0.295, "robust z-score, replicate 3": 0.0618, "Call": "inactive"}
{"gene symbol": "KCNG4", "pool no.": 1, "robust z-score, replicate 1": 1.36, "robust z-score, replicate 2": 1.43, "robust z-score, replicate 3": 1.19, "Call": "inactive"}
{"gene symbol": "PMVK", "pool no.": 1, "robust z-score, replicate 1": 0.486, "robust z-score, replicate 2": 1.03, "robust z-score, replicate 3": 0.346, "Call": "inactive"}
{"gene symbol": "NOS2", "pool no.": 1, "robust z-score, replicate 1": -0.139, "robust z-score, replicate 2": -0.727, "robust z-score, replicate 3": -0.405, "Call": "inactive"}
{"gene symbol": "MTA2", "pool no.": 1, "robust z-score, replicate 1": -1.54, "robust z-score, replicate 2": -0.861, "robust z-score, replicate 3": -0.87, "Call": "inactive"}
{"gene symbol": "CCDC25", "pool no.": 1, "robust z-score, replicate 1": 1.2, "robust z-score, replicate 2": -0.133, "robust z-score, replicate 3": -1, "Call": "inactive"}
{"gene symbol": "WDR82P1", "pool no.": 1, "robust z-score, replicate 1": 0.157, "robust z-score, replicate 2": 0.16, "robust z-score, replicate 3": 0.364, "Call": "inactive"}
{"gene symbol": "KLK7", "pool no.": 1, "robust z-score, replicate 1": 0.686, "robust z-score, replicate 2": 1.38, "robust z-score, replicate 3": 1.13, "Call": "inactive"}
{"gene symbol": "RBM38", "pool no.": 1, "robust z-score, replicate 1": -0.894, "robust z-score, replicate 2": -0.71, "robust z-score, replicate 3": -0.729, "Call": "inactive"}
{"gene symbol": "GTF2H2", "pool no.": 1, "robust z-score, replicate 1": -0.0909, "robust z-score, replicate 2": -0.111, "robust z-score, replicate 3": -0.127, "Call": "inactive"}
{"gene symbol": "DNAH1", "pool no.": 1, "robust z-score, replicate 1": 0.231, "robust z-score, replicate 2": -0.757, "robust z-score, replicate 3": -0.867, "Call": "inactive"}
{"gene symbol": "TRIM77", "pool no.": 1, "robust z-score, replicate 1": -0.0806, "robust z-score, replicate 2": -0.316, "robust z-score, replicate 3": -0.0525, "Call": "inactive"}
{"gene symbol": "KCNV2", "pool no.": 1, "robust z-score, replicate 1": -0.632, "robust z-score, replicate 2": -0.714, "robust z-score, replicate 3": -0.554, "Call": "inactive"}
{"gene symbol": "OTX1", "pool no.": 1, "robust z-score, replicate 1": -0.439, "robust z-score, replicate 2": -0.864, "robust z-score, replicate 3": 0.298, "Call": "inactive"}
{"gene symbol": "YIF1B", "pool no.": 1, "robust z-score, replicate 1": -2.37, "robust z-score, replicate 2": -2.55, "robust z-score, replicate 3": -2.56, "Call": "active"}
{"gene symbol": "YIF1B", "pool no.": 2, "robust z-score, replicate 1": 1.65, "robust z-score, replicate 2": 0.524, "robust z-score, replicate 3": 0.985, "Call": "inactive"}
{"gene symbol": "LOC100287792", "pool no.": 1, "robust z-score, replicate 1": -0.352, "robust z-score, replicate 2": -0.657, "robust z-score, replicate 3": -0.667, "Call": "inactive"}

4 of these entries, set out differently.
NYAP2: robust z-score, replicate 1 = 1.44; robust z-score, replicate 2 = 1.39; robust z-score, replicate 3 = 0.846; Call = inactive
PURB: robust z-score, replicate 1 = 2.96; robust z-score, replicate 2 = 2.97; robust z-score, replicate 3 = 3.34; Call = active
LINC00996: robust z-score, replicate 1 = -0.388; robust z-score, replicate 2 = -0.41; robust z-score, replicate 3 = -0.69; Call = inactive
LOC440492 (retired record): robust z-score, replicate 1 = -0.404; robust z-score, replicate 2 = -0.681; robust z-score, replicate 3 = -0.546; Call = inactive
